This is one part of the list.
molecular target: T1, OsSMF1 (Oryza sativa, UniProt Q6ZLB0 1-436); assay: protein-binding microarray (RPBM); PBS, 2% BSA, 51.3 ng/ul salmon testes DNA, 50 uM zinc acetate, 200 nM TF, 25 C, 1 h; high values mean tight binding; settings: protein: recombinant; tags: N-terminal polyhistidine and DsRed monomer fusion (pET32a); chain copies: 2; label: CyDye5-dUTP incorporated in the synthesized complementary strand; 3' TTTTT single-stranded linker to array surface; dsDNA, one strand shown
T1 sequence: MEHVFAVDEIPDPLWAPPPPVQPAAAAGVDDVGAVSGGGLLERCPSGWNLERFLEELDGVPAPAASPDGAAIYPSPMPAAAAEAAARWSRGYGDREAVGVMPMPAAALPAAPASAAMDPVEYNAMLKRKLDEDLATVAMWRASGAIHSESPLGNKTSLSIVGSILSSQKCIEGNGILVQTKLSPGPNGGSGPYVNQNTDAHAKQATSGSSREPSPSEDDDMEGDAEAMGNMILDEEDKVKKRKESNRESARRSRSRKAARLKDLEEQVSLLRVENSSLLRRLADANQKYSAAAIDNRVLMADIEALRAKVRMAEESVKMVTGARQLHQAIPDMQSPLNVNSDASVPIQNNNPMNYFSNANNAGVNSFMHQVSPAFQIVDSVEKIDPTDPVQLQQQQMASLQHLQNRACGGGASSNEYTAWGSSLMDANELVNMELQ
How it was run: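 Binding signal is reported as fluorescence intensity per feature (arbitrary units) from an Axon 4000B scanner. Incubation used 200 nM of each Ni–NTA-purified, N-terminally polyhistidine- and DsRed-fused transcription factor from E. coli BL21-CodonPlus on a double-stranded custom Agilent array for 1 h at 25 °C, with 50 µM zinc acetate in the buffer, followed by washing.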

Sequence	binding signal
ACACGGATATCCACGGCTGCACTGAGGTAGTACTAGATTTCGGAGTCACCTAGTGCAG	3340 fluorescence intensity (a.u.)
ATGAGGAGGAGAGAGAATGACATGCGGGTCTCATTAACTCCGGAGTCACCTAGTGCAG	3280 fluorescence intensity (a.u.)
CTGGTAACCACGCACAGTAAAAGCTTCATTTTGACTCAGACGGAGTCACCTAGTGCAG	3620 fluorescence intensity (a.u.)
GGAGGCAATCACACGACGTGTCTAGGAGTAGTATATTCCTCGGAGTCACCTAGTGCAG	4110 fluorescence intensity (a.u.)
TTCCTTTGCCTCGTCATCAAACCGCGCGCGCTCCTCAACTCGGAGTCACCTAGTGCAG	12900 fluorescence intensity (a.u.)
CAAATACGATACGTATATTGGGTAGCGGCCAAAGCGCTAGCGGAGTCACCTAGTGCAG	25200 fluorescence intensity (a.u.)
TTGACATATGAGCCATAGTAAAATAGGTCCACATGTCAGTCGGAGTCACCTAGTGCAG	3610 fluorescence intensity (a.u.)
GAGACTGACGTGTGGGTCCCACGAAGTTAATTATTCTTCCCGGAGTCACCTAGTGCAG	5980 fluorescence intensity (a.u.)
CCGCCCGGATCTACCTCGGCGCCGCGTCGGCGGGCGGAACCGGAGTCACCTAGTGCAG	3710 fluorescence intensity (a.u.)
TAATCCATTCCTAATAAGAATCGAATAAAGAGATAGAGTTCGGAGTCACCTAGTGCAG	28800 fluorescence intensity (a.u.)
TCGAGGAAATTACCATATCGCCCACCACCCCGGGCCACGTCGGAGTCACCTAGTGCAG	5830 fluorescence intensity (a.u.)
GATCGATAATCTACGATGAGTAATCGATGTGGTGGACTTGCGGAGTCACCTAGTGCAG	20000 fluorescence intensity (a.u.)
AAACGAGCACATGAGCACATGTACACCCTATTCTAAGAGCCGGAGTCACCTAGTGCAG	29700 fluorescence intensity (a.u.)
TTACTATATTTGTCTATAAACTTAGTCAAACTTGAAGTCACGGAGTCACCTAGTGCAG	24300 fluorescence intensity (a.u.)
TCTGTAGTGTTGGCGTGTTGCCACTATCTTGCATTTACAGCGGAGTCACCTAGTGCAG	4070 fluorescence intensity (a.u.)
GAGGTGGGGTGGCTTAGTGACCTCGTGTCGTAGATTGGATCGGAGTCACCTAGTGCAG	4900 fluorescence intensity (a.u.)
GAGGAGTGGAAGGGTCTGCAACGGGACGGATGATGGGGTTCGGAGTCACCTAGTGCAG	5060 fluorescence intensity (a.u.)
AGGATCTGTGTCTGACTGTGTTTACAAGTGGATTGGATAACGGAGTCACCTAGTGCAG	6350 fluorescence intensity (a.u.)
CCTACAGTCAAGCCCATTCTGTTTTACCGATTGCAATGCTCGGAGTCACCTAGTGCAG	26200 fluorescence intensity (a.u.)
GCATCACTGACACGCGGGCCCTGCCCACGTGGTCGGTAGCCGGAGTCACCTAGTGCAG	6540 fluorescence intensity (a.u.)
AATTGGTTGAGAGGAGGATGTACATGGAGAAAATAGCTTTCGGAGTCACCTAGTGCAG	3490 fluorescence intensity (a.u.)

Two entries from above, in markdown:

| Sequence | binding signal |
| --- | --- |
| GAGGTGGGGTGGCTTAGTGACCTCGTGTCGTAGATTGGATCGGAGTCACCTAGTGCAG | 4900 fluorescence intensity (a.u.) |
| GAGGAGTGGAAGGGTCTGCAACGGGACGGATGATGGGGTTCGGAGTCACCTAGTGCAG | 5060 fluorescence intensity (a.u.) |

Continued:

Sequence	binding signal
GACCACACTAACTCTGTCACCGTGTCTGTTCCATGATCGGCGGAGTCACCTAGTGCAG	3440 fluorescence intensity (a.u.)
ATCAAGGAGATCTTCTTCTTCCGCTCGTAATGCTGGATGGCGGAGTCACCTAGTGCAG	24800 fluorescence intensity (a.u.)
AATCTATATGTTATCGTCCTCCTCTTGCGTGTGGCTAGTTCGGAGTCACCTAGTGCAG	3750 fluorescence intensity (a.u.)
GGACGTTCGAGATTCGTCCACGTCATCATGAGTTAAAATTCGGAGTCACCTAGTGCAG	11700 fluorescence intensity (a.u.)
ATTTCACAGTGTTTATCTAGGTGTATTATTCCACACGTGTCGGAGTCACCTAGTGCAG	6120 fluorescence intensity (a.u.)
CACCCCGCGCGCTCCCGGTTCCCACCTCCCCTAACTAACTCGGAGTCACCTAGTGCAG	4040 fluorescence intensity (a.u.)
TCACGAACGCACGATGCAAAGACAAAGTTGTCACGTCAATCGGAGTCACCTAGTGCAG	26100 fluorescence intensity (a.u.)
AGGGATGCAAGAAGAAGAAGCACCTGATTCAACGCTTGCCCGGAGTCACCTAGTGCAG	24600 fluorescence intensity (a.u.)
CTCACTCGCTTGCGCTTCACCTCGCGGCATCGACTTCCTACGGAGTCACCTAGTGCAG	3630 fluorescence intensity (a.u.)
AGAAAATGAGTTGGAGTCATTATTTTGTGTGTATACCCGACGGAGTCACCTAGTGCAG	5560 fluorescence intensity (a.u.)
ACCTGCACAAGTGTGAAGTCGAGGGTGACTCAGCTCAACTCGGAGTCACCTAGTGCAG	10100 fluorescence intensity (a.u.)
AGCGACGAGTAAACAAAGCGCGGCGTAGCATGTGATGTGGCGGAGTCACCTAGTGCAG	4440 fluorescence intensity (a.u.)
GTCTCGTCGGGTGCGTGGCGTGCGGGGTGCTGCGTTGCCGCGGAGTCACCTAGTGCAG	6440 fluorescence intensity (a.u.)
GGATCGGCAATGTCAGCAGCTGCTCACTTGCTCGCATGCCCGGAGTCACCTAGTGCAG	3740 fluorescence intensity (a.u.)
GGGGTGCTGTTGCTGCGTGCCTGCGTGTACGTCGTTTGGTCGGAGTCACCTAGTGCAG	6600 fluorescence intensity (a.u.)
CTGGTCCCACTTGTCATACACACACTGTCTTTGAATCCGTCGGAGTCACCTAGTGCAG	3180 fluorescence intensity (a.u.)
TTTCTGATGATTGCATGCACGTCTTGCTGGCTCATCCATGCGGAGTCACCTAGTGCAG	3830 fluorescence intensity (a.u.)
CTGAAATTTCCAATCATCTTGCGTGTGCAAGACAGCAAAGCGGAGTCACCTAGTGCAG	3530 fluorescence intensity (a.u.)
CTATATACCCACATAGTTGGTTTATCGGACTGGTTATAGGCGGAGTCACCTAGTGCAG	19200 fluorescence intensity (a.u.)
TCTTGTTGCTTGTGTCACCTCCTTTTGTCTTCTACCCGAGCGGAGTCACCTAGTGCAG	4870 fluorescence intensity (a.u.)
CGAGGCGCCGTGCGCCGACGGCGGCGTCATCGTCGAGGGACGGAGTCACCTAGTGCAG	3260 fluorescence intensity (a.u.)

From PMC7819943, “Rice protein-binding microarrays: a tool to detect cis-acting elements near promoter regions in rice”
